According to PubChem BioAssay AID758 (NMMLSC, 2007):
About 110 (0.058%) of roughly 190,000 compounds were called active. Inconclusive results, whose numbers are uncertain, are shown with a selection of clear calls.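 The calls were made as follows: active = fluorescent GTP binding to Rab7 beads changed by at least 20 points from the 100% baseline, either direction, mostly lower; inconclusive = compound itself probably fluorescent, or too few beads counted; inactive = the rest.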

Each compound was assayed on Rab7 GTPase wild type (dog), Bodipy-FL-GTP binding (assay: modulators of GTP binding to Rab7, primary screen, biochemical, wildtype, multiplex bead flow cytometry (AID 758;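 also: median green fluorescence of bound Bodipy-FL-GTP per Rab7 bead population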)). Conditions: GST-Rab7 beads, fluorescent GTP binding, at 10 µM, actives lie on both sides, untreated = 100%, excess cold GTP = 0%.

Compound	GTP binding activity (percent of control)
COc1ccccc1Nc1nnc(SCC(=O)NC(=O)Nc2ccc3c(c2)OCCO3)s1	inconclusive: 99%
O=[N+]([O-])c1cc(Br)c(O)c(C=Nc2ccc(N3CCOCC3)cc2)c1	inactive: 97%
Cn1c(=O)c([N+](=O)[O-])c(Cl)c2ccccc21	inactive: 92%
Cc1cc(C)n(Cc2cc(C(=O)O)c3ccccc3n2)n1	inactive: 106%
Nc1[nH]n2c(=O)cc(-c3ccccc3)nc2c1N=Nc1ccccc1	inactive: 97%
CC(C(=O)Nc1ccccc1-c1ccccc1)N1CCCCC1 (stereo unspecified)	inconclusive: 102%
COc1cc(-c2nnc(SCC(=O)N(C)C3CCS(=O)(=O)C3)o2)cc(OC)c1OC (stereo unspecified)	inconclusive: 93%
COc1cc2c(cc1NC(=O)COC(=O)Cn1cnc3ccccc31)oc1ccccc12	inconclusive: 93%
Cc1ccc(C(=O)NC(=S)NCc2ccco2)cc1	inconclusive: 94%
O=C(NCCCn1ccnc1)c1noc2c1CCCC2	inconclusive: 105%
COc1ccc(C2N(c3ccc(F)cc3)C(=O)C3CCCN32)cc1 (stereo unspecified)	inconclusive: 109%
COc1cc(/C=N\NC(=O)CNC(=O)C2COc3ccccc3O2)ccc1O (stereo unspecified)	inconclusive: 252%
N#CC(Sc1ccccn1)c1ccc(Cl)cc1Cl (stereo unspecified)	inconclusive: 93%
CCN(C(=O)c1cn(CC)c(=O)c2cc(OC)c(OC)cc12)c1ccccc1C	inconclusive: 109%
Cc1ccc(/C(N)=N/OC(=O)Cc2ccccc2)cc1	inconclusive: 102%
CN1CCN(CC(=O)Nc2cc(N(C)C)nc3ccccc23)CC1	inconclusive: 98%
CS(=O)(=O)N1CCCC(C(=O)Nc2ccc3c(c2)OCCO3)C1 (stereo unspecified)	inactive: 105%
CCc1ccc(/C=C2\SC(N3CCOCC3)=NC2=O)cc1	inactive: 94%
CC(=O)NC(Cc1ccccc1C)C(=O)NC1CCN(c2ncccc2[N+](=O)[O-])CC1 (stereo unspecified)	inactive: 104%
C=CCN1C(=O)/C(=C\c2ccc(Oc3nc(N4CCOCC4)nc(N4CCOCC4)n3)c(OC)c2)SC1=S	inactive: 96%
O=c1ccc2cc(S(=O)(=O)Nc3ccc(F)cc3)ccc2o1	inconclusive: 94%
N#Cc1c(N2CCN(c3ccc(F)cc3)CC2)nc(N)c2c(N)nc3c(c12)CC(=O)N3C1CC1	inconclusive: 92%
CC(=O)c1c(C)nc2sc3c(=N)n(N)cnc3c2c1-c1ccc(Cl)cc1	inconclusive: 99%

A few values from the list:
CN1CCN(CC(=O)Nc2cc(N(C)C)nc3ccccc23)CC1 | GTP binding activity (percent of control): inconclusive: 98%
CCN(C(=O)c1cn(CC)c(=O)c2cc(OC)c(OC)cc12)c1ccccc1C | GTP binding activity (percent of control): inconclusive: 109%

Additional structures

Compound	GTP binding activity (percent of control)
O=C(O)c1ccccc1C(=O)NCc1cccnc1	inactive: 97%
COC(=O)c1sc2nc(-c3ccco3)ccc2c1N	inconclusive: 89%
C=CCOc1cccc(/C=N/NC(=O)CN(c2cc(Cl)ccc2OC)S(=O)(=O)c2ccc(C)c([N+](=O)[O-])c2)c1	inconclusive: 147%
CC1=C(C(=O)Nc2cc(C)ccn2)C(c2ccc(C)cc2)C2=C(CCCC2=O)N1 (stereo unspecified)	inconclusive: 102%
Cc1ccc(C(=O)N/N=C\c2c(C)nn(-c3ccccc3)c2Cl)cn1	inconclusive: 100%
O=C(c1ccc(C(F)(F)F)cc1)C1CCCN(C(=O)CCN2CCCO2)C1 (stereo unspecified)	inactive: 97%
Oc1ccc(NC(=S)N=Nc2c(O)[nH]c3ccc(Br)cc23)cc1	inactive: 92%
COc1ccc(NC(=O)c2cccn(CC=C(C)C)c2=O)cc1	inactive: 92%
CCCCC(O)CN1CCC(c2ccccc2)CC1 (stereo unspecified)	inconclusive: 100%
COc1cc(/C=N/Nc2nc(Nc3ccccc3)nc(N3CCCCC3)n2)ccc1OCC(=O)O	inconclusive: 91%
CCC1(CC)NC(=O)N(CC(=O)OCC(=O)Nc2sccc2C#N)C1=O	inconclusive: 93%
O=c1c2ccccc2oc2nc3n(c(=O)c12)CCCS3	inconclusive: 89%
COc1ccc(-c2nc(C)ncc2-c2csc(C)n2)c(O)c1	inconclusive: 104%
O=C1OCC2=C1C(c1ccc(F)cc1)CC(=O)N2c1ccccc1 (stereo unspecified)	inactive: 98%
COC(=O)c1ccc2nc(Nc3nc4ccc(F)cc4s3)sc2c1	inconclusive: 92%
O=C1CCCN1CCC1CCCCN1Cc1nc(-c2cnccn2)no1 (stereo unspecified)	inactive: 92%
Cc1ccc(-c2csc(-c3c[nH]c4ccccc34)n2)c(C)c1	inconclusive: 99%
Cc1ccc(CNC(=O)COC(=O)c2ccc(S(=O)(=O)N(C)C)cc2)cc1	inactive: 98%
C#CC1(NC(=O)N(C)C)CCCCC1	inconclusive: 99%
CCOC(=O)C1(Cc2ccccc2)CCCN(Cc2ccccn2)C1 (stereo unspecified)	inconclusive: 95%
COc1cccc(-n2c(Cc3cc(=O)[nH]c(=O)[nH]3)nnc2SCc2cccc(C(F)(F)F)c2)c1	inactive: 104%
O=C(CCC(=O)c1ccc(Oc2ccccc2)cc1)Nc1cccc(Cl)c1Cl	inconclusive: 95%
O=C(NCC1CCCO1)C1CC(=O)N(C2CCCCCC2)C1 (stereo unspecified)	inconclusive: 109%
